Source: PubChem BioAssay AID504834 (National Center for Advancing Translational Sciences (NCATS), 2011)
In all, about 320,000 compounds went through this assay and about 22,000 (6.9%) were called active. Inconclusive means that the source gave no clear call. Such entries were picked first, then a sample of the others. Calls come from the whole dose curve; as a rule, active = well fitted inhibition curve with a large enough effect; inconclusive = small, poorly fitted or top-dose-only effect, or another doubt; inactive = no such curve, though single readings can be large or run the other way. Potencies of inconclusive entries are doubtful fits and often do not repeat.

test: Primary qHTS for delayed death inhibitors of the malarial parasite plastid, 96 hour incubation; conditions: P. falciparum luciferase reporter growth; series mostly up to 28.7 µM; activity change, negative = inhibition: at the top concentration
Method in brief: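 Parasite growth measured via integrated firefly luciferase reporter in P. falciparum. Infected erythrocytes at 2% hematocrit, 0.05% parasitemia final were treated 96 hours at 37 C under 5% CO2, and luminescence was read.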
% is set by controls: 0 for no effect and ±100 for the full control effect; potency is the fitted concentration of half-maximal effect.

Row | SMILES | Potency | activity change, negative = inhibition
1 | CCOC(=O)C(NC(=O)CC)(Nc1nc2c(s1)CCCC2)C(F)(F)F (centres undefined) | inconclusive: 14.7 µM [inhibitor, single point] | 
2 | COc1ccc(-c2nnc(SCC(=O)N3CCCC3)o2)c(OC)c1 |  | inactive: 10.5%
3 | COc1cc2[nH]c(=O)n(CCCCCC(=O)NCCCN3CCOCC3)c(=O)c2cc1OC | inconclusive: 18.5 µM [inhibitor, single point] | 
4 | COc1cc(/C=C/C(=O)Nc2cc(S(=O)(=O)N3CCOCC3)ccc2N2CCCC2)cc(OC)c1OC |  | inactive: -4.93%
5 | Cc1nc2ccccc2c(=O)n1/N=C/c1ccc([N+](=O)[O-])o1 | active: 5.86 µM | 
6 | COc1ccc(N(C)S(=O)(=O)c2cccc(C(=O)NC3CCCC(C)C3C)c2)cc1 (centres undefined) | inconclusive: 11.7 µM [inhibitor, single point] | 
7 | CCCc1cc(=O)oc2cc(C)cc(OCC(=O)NCCN3CCOCC3)c12 | inconclusive: 18.5 µM [inhibitor, partial curve, poor fit] | 
8 | Cc1ccc(OC(=O)c2ccc([N+](=O)[O-])cc2Cl)cn1 | inconclusive: 9.28 µM [inhibitor, single point] | 
9 | Cn1c2c(c(=O)n(C)c1=O)C(c1ccc(Br)cc1)C(C#N)=C(N)N2 (centres undefined) | inconclusive: 11.7 µM [inhibitor, partial curve, poor fit] | 
10 | NC(=O)CC(NC(=O)Cc1cccc2ccccc12)c1ccc(NC2CC3CCC2C3)c([N+](=O)[O-])c1 (centres undefined) | inconclusive: 8.28 µM [inhibitor, partial curve, poor fit] | 
11 | O=C(c1cc2ccccc2oc1=O)N(Cc1ccc(F)cc1)C1CCS(=O)(=O)C1 (centres undefined) |  | inactive: 25.7%
12 | O=C(/C=C/c1ccc2c(c1)OCO2)c1c(O)n(CCc2ccccc2)c(=O)[nH]c1=O | inconclusive: 18.5 µM [inhibitor, single point] | 
13 | COc1ccc(COCCN2CCN(S(=O)(=O)c3ccccc3)CCC2=O)cc1 | inconclusive: 18.5 µM [inhibitor, single point] | 
14 | CCc1ccc(-c2cc(C(=O)Nc3ccc(S(=O)(=O)NC(C)=O)cc3)c3ccccc3n2)cc1 | inconclusive: 0.0033 µM [inhibitor, full curve, poor fit] | 
15 | O=C(COC(=O)C12CC3CC(CC(O)(C3)C1)C2)NC(=O)NCc1ccco1 | inconclusive: 18.5 µM [inhibitor, single point] | 
16 | COCC1CCN(C(=O)c2cc(COc3ccc(-n4cncn4)cc3)on2)CC1 | inconclusive: 20.8 µM [inhibitor, partial curve, poor fit] | 
17 | OC(c1ccccc1)(C1CCCCC1)C(CN1CCOCC1)c1ccccc1 (centres undefined) |  | inactive: 2.47%
18 | COc1ccc(/C(C)=N/NC(=O)c2ccc3nc[nH]c3c2)cc1 | inconclusive: 13.1 µM [inhibitor, single point] | 
19 | C/C=C/c1ccc(OCC(=O)NCc2ccccc2OC)c(OC)c1 | inconclusive: 11.7 µM [inhibitor, partial curve, poor fit] | 
20 | Cc1cc(-c2ccc(S(=O)(=O)N(C)Cc3ccccc3)cc2)on1 | inconclusive: 18.5 µM [inhibitor, single point] | 
21 | COC(=O)c1ccc(N/C=C/C(=O)c2ccc(OC)c(OC)c2)cc1 |  | inactive: -10.3%
22 | CCOC(=O)c1cnc(-n2nc(C)cc2C)nc1NNc1nc(C)cc(C)n1 | active: 2.94 µM | 

Row | SMILES | Potency | activity change, negative = inhibition
23 | O=C(CN1CCCCC1)NNc1nc(-c2ccccc2)c2cc(Cl)ccc2n1 |  | inactive: -19.2%
24 | CCN(CC)c1ncc(C)c(=O)[nH]1 |  | inactive: 0.78% [at 5.75 µM]
25 | CC1=C(C(=O)Nc2ccccc2C(=O)NCCCOC(C)C)SCCO1 | active: 4.15 µM | 
26 | COc1cc(C(O)P(=O)(OCCC(C)C)c2ccc(N(C)C)cc2)cc(OC)c1OC (centres undefined) | inconclusive: 18.5 µM [inhibitor, single point] | 
27 | Cn1cc([N+](=O)[O-])c(C(=O)NC2CCCCCCC2)n1 |  | inactive: -26.1%
28 | COc1cc(C(=O)Nc2nccs2)ccc1OCc1c(C)noc1C |  | inactive: 1.97% [at 5.75 µM]
29 | O=C(OC(C(=O)NCc1ccccc1)c1ccccc1)c1ccco1 (centres undefined) | inconclusive: 8.28 µM [inhibitor, partial curve, poor fit] | 
30 | COc1ccc(-c2cc(C)no2)cc1S(=O)(=O)NCC(C)c1ccccc1 (centres undefined) | inconclusive: 11.7 µM [inhibitor, single point] | 
31 | CC(C)(C)N1C(=O)c2ccccc2NC(=O)N1Cc1ccc(Br)cc1 | active: 8.28 µM | 
32 | COCCCNC(=S)NNC(=O)c1ccc2c(c1)OCO2 | inconclusive: 6.57 µM [inhibitor, partial curve, poor fit] | 
33 | c1ccc(CN2CCN(Cc3ccc4ccccc4c3)CC2)cc1 | active: 0.928 µM | 
34 | COC(=O)Cc1c(C)c2ccc(OCC(=O)NC3CCS(=O)(=O)C3)cc2oc1=O (centres undefined) |  | inactive: 0.846%
35 | CC(=O)c1cn(CC(=O)NCc2ccco2)c2ccccc12 | inconclusive: 18.5 µM [inhibitor, single point] | 
36 | CCOc1ccc(Nc2nc(CC(=O)OC)cc(=O)[nH]2)cc1 | inconclusive: 2.08 µM [inhibitor, single point] | 
37 | CCOc1cc(N2CCOCC2)c(OCC)cc1NC(=O)COC(=O)[C@H](Cc1c[nH]c2ccccc12)NC(C)=O |  | inactive: 7.96%
38 | Cc1cccc(C(=O)OCC(=O)NC(=O)NCc2ccccc2)c1 |  | inactive: 13.9%
39 | O=C(/C=C/c1ccccc1)CC(O)(c1ccccc1)C(F)(F)C(F)F (centres undefined) | active: 7.38 µM | 
40 | Cc1ccc(NC(=O)CSc2nc3ccccc3c(=O)n2CCCC(=O)NCC2CCCO2)cc1 (centres undefined) | inconclusive: 9.28 µM [inhibitor, single point] | 
41 | CCc1ccc(C(=O)CSc2n[nH]c(C)n2)cc1 |  | inactive: -26%
42 | CCOC(=O)C1(Cc2ccccc2C(F)(F)F)CCN(CCCn2cccn2)CC1 | inconclusive: 18.5 µM [inhibitor, single point] | 
43 | CC(C)c1ccc(C2(C)NC(=O)N(CC(=O)N3CCN(C(=O)c4cccs4)CC3)C2=O)cc1 (centres undefined) | inconclusive: 9.28 µM [inhibitor, partial curve, poor fit] | 
44 | COc1ccccc1CN(C)C(=O)c1sccc1-c1ccccc1 | inconclusive: 14.7 µM [inhibitor, partial curve, poor fit] | 

3 compounds out of the list, arranged by number of heavy atoms, ascending:
Row | SMILES | Potency | activity change, negative = inhibition
17 | OC(c1ccccc1)(C1CCCCC1)C(CN1CCOCC1)c1ccccc1 (centres undefined) |  | inactive: 2.47%
40 | Cc1ccc(NC(=O)CSc2nc3ccccc3c(=O)n2CCCC(=O)NCC2CCCO2)cc1 (centres undefined) | inconclusive: 9.28 µM [inhibitor, single point] | 
10 | NC(=O)CC(NC(=O)Cc1cccc2ccccc12)c1ccc(NC2CC3CCC2C3)c([N+](=O)[O-])c1 (centres undefined) | inconclusive: 8.28 µM [inhibitor, partial curve, poor fit] | 
